Test results taken from US11959929B2, “Method of quantifying lysergic acid diethylamide (LSD) and 2,3-dihydro-3-hydroxy-2-oxo lysergide (O-H-LSD) in human plasma” (Universitatsspital Basel, priority 2020, dated 2024).

Assay: Carry-over between injections (double Blank after ULOQ)
Set-up: species or system human
[1] = 1st Double blank after ULOQ, Assay 1
[2] = 1st Double blank after ULOQ, Assay 2
[3] = 1st Double blank after ULOQ, Assay 3
[4] = 2nd Double blank after ULOQ, Assay 1
[5] = 2nd Double blank after ULOQ, Assay 2
[6] = 2nd Double blank after ULOQ, Assay 3

In the case of CCN(CC)C(=O)[C@@H]1C=C2c3cccc4[nH]cc(c34)C[C@H]2N(C)C1 [LSD, Lysergic acid diethylamide], the “Carry-over % LLOQ” value [1] is reported as 97.1%, the “Carry-over % ULOQ” value [1] is reported as 0.114% and the “Carry-over % LLOQ” value [2] is reported as 87.6%. For the same compound, the “Carry-over % ULOQ” value [2] was 0.097%, the “Carry-over % LLOQ” value [3] was 61.6% and the “Carry-over % ULOQ” value [3] was 0.079%. For the same compound, the “Carry-over % LLOQ” value [4] was 18.6%, the “Carry-over % ULOQ” value [4] was 0.022% and the “Carry-over % LLOQ” value [5] was 19.0%. The “Carry-over % ULOQ” value [5] was 0.021%, the “Carry-over % LLOQ” value [6] was 21.1% and the “Carry-over % ULOQ” value [6] was 0.027%.

In the case of CCN(CC)C(=O)C1C=C2c3cccc4c3C(O)(C[C@H]2N(C)C1)C(=O)N4 (stereo partly drawn) [O-H-LSD, 2,3-dihydro-3-hydroxy-2-oxo lysergide], the “Carry-over % LLOQ” value [1] is reported as 40.1%, the “Carry-over % ULOQ” value [1] is reported as 0.045% and the “Carry-over % LLOQ” value [2] is reported as 57.2%. The “Carry-over % ULOQ” value [2] was 0.064%, the “Carry-over % LLOQ” value [3] was 43.1% and the “Carry-over % ULOQ” value [3] was 0.060%. The “Carry-over % LLOQ” value [4] was 3.46%, the “Carry-over % ULOQ” value [4] was 0.004% and the “Carry-over % LLOQ” value [5] was 2.09%. The “Carry-over % ULOQ” value [5] was 0.002%, the “Carry-over % LLOQ” value [6] was 38.5% and the “Carry-over % ULOQ” value [6] was 0.054%.
